Measurements as given in patent publication US9554576B2, “Tetrazolinone compounds and their use as pesticides” (SUMITOMO CHEMICAL COMPANY, LIMITED, priority 2012, dated 2017).
Some entries share one result that the patent states for a list of compounds.

Experiments:
[1] = test system: kidney bean sclerotinia rot fungi (Sclerotinia sclerotiorum); experiment: Test Example 4: kidney bean sclerotinia rot control, foliar spray on kidney bean (cv Nagauzurasaitou), 500 ppm; settings: 500 ppm foliar spray, PDA medium with hyphae placed on leaves, observed after four days
[2] = test system: barley leaf blotch fungi (Rhynchosporium secalis); experiment: Test Example 14: barley leaf blotch foliar spray test; assay type: in vivo; settings: barley (cv; Mikamo Golden), 200 ppm foliar spray, inoculated after 2 days
[3] = test system: wheat leaf blotch fungi (Septoria tritici); experiment: Test Example 5: wheat leaf blotch control, foliar spray on wheat (cv Apogee), 500 ppm; assay type: in vivo; settings: 500 ppm foliar spray, inoculated 4 days after spraying, observed after 3 days + 14 to 18 days
[4] = test system: barley net blotch fungi (Pyrenophora teres); experiment: Test Example 3: barley net blotch control, foliar spray on barley (cv Mikamo Golden), 500 ppm; assay type: in vivo; settings: 500 ppm foliar spray, inoculated 2 days after spraying, observed after 3 + 7 days
[5] = test system: powdery mildew fungi (Sphaerotheca fuliginea); experiment: Test Example 6: cucumber powdery mildew control, foliar spray on cucumber (cv Sagamihanjiro), 500 ppm; assay type: in vivo; settings: 500 ppm foliar spray, spores sprinkling-inoculated, observed after 8 days
[6] = test system: barley net blotch fungi (Pyrenophora teres); experiment: Barley net blotch foliar spray preventive test; assay type: in vivo; settings: barley (cv; Mikamo Golden), 200 ppm foliar spray, inoculated after 2 days
[7] = test system: kidney bean sclerotinia rot fungi (Sclerotinia sclerotiorum); experiment: Test Example 10: kidney bean sclerotinia rot foliar spray test; settings: Kidney bean (cv; Nagauzurasaitou), 200 ppm foliar spray, observed after four days
[8] = test system: wheat leaf blotch fungi (Septoria tritici); experiment: Test Example 11: wheat leaf blotch foliar spray test; assay type: in vivo; settings: wheat (cv; Apogee), 200 ppm foliar spray, inoculated after 4 days
[9] = test system: powdery mildew fungi (Sphaerotheca fuliginea); experiment: Test Example 12: cucumber powdery mildew foliar spray test; assay type: in vivo; settings: cucumber (cv; Sagamihanjiro), 200 ppm foliar spray, observed after 8 days
[10] = test system: soybean rust fungi (phakopsora pachyrhizi); experiment: Test Example 13: soybean rust foliar spray test; assay type: in vivo; settings: soybean (cv: Kurosengoku), 200 ppm foliar spray, inoculated after 2 days

Cc1cc(-n2nc(C)c(C)c2C)ccc1OCc1c(OC(F)F)cccc1-n1nnn(C)c1=O [Present compound 1, 1-{3-difluoromethoxy-2-[2-methyl-4-(3,4,5-trimethyl-pyrazol-1-yl)-phenoxymethyl]-phenyl}-4-methyl-1,4-dihydrotetrazole-5-one]
≤ 30%: lesion area in treated plants compared to the lesion area in untreated plants [1] | lesion area compared to the lesion area in untreated plants [2] | lesion area in treated plants compared to the lesion area in untreated plants [3] | lesion area in treated plants compared to the lesion area in untreated plants [4] | lesion area in treated plants compared to the lesion area in untreated plants [5]

Cc1cc(C)n(-c2ccc(OCc3c(C4CC4)cccc3-n3nnn(C)c3=O)c(C)c2)n1 [Present compound 3, 1-{3-cyclopropyl-2-[2-methyl-4-(3,5-dimethyl-pyrazol-1-yl)-phenoxymethyl]-phenyl}-4-methyl-1,4-dihydrotetrazole-5-one]
≤ 30%: lesion area in treated plants compared to the lesion area in untreated plants [1] | lesion area compared to the lesion area in untreated plants [2] | lesion area in treated plants compared to the lesion area in untreated plants [3] | lesion area compared to the lesion area in untreated plants [6] | lesion area compared to the lesion area in untreated plants [7] | lesion area compared to the lesion area in untreated plants [8] | lesion area compared to the lesion area in untreated plants [9] | lesion area in treated plants compared to the lesion area in untreated plants [4] | lesion area in treated plants compared to the lesion area in untreated plants [5]

Cc1cc(C)n(-c2ccc(OCc3c(C4CC4)cccc3-n3nnn(C)c3=O)c(Cl)c2)n1 [Present compound 4, 1-{3-cyclopropyl-2-[2-chloro-4-(3,5-dimethyl-pyrazol-1-yl)-phenoxymethyl]-phenyl}-4-methyl-1,4-dihydrotetrazole-5-one]
≤ 30%: lesion area in treated plants compared to the lesion area in untreated plants [1] | lesion area compared to the lesion area in untreated plants [2] | lesion area in treated plants compared to the lesion area in untreated plants [3] | lesion area compared to the lesion area in untreated plants [6] | lesion area compared to the lesion area in untreated plants [7] | lesion area compared to the lesion area in untreated plants [8] | lesion area compared to the lesion area in untreated plants [9] | lesion area in treated plants compared to the lesion area in untreated plants [4] | lesion area in treated plants compared to the lesion area in untreated plants [5]

Cc1ccn(-c2ccc(OCc3c(C4CC4)cccc3-n3nnn(C)c3=O)c(C)c2)n1 [Present compound 5, 1-{3-cyclopropyl-2-[2-methyl-4-(3-methyl-pyrazol-1-yl)-phenoxymethyl]-phenyl}-4-methyl-1,4-dihydrotetrazole-5-one]
≤ 30%: lesion area compared to the lesion area in untreated plants [10] | lesion area compared to the lesion area in untreated plants [6] | lesion area in treated plants compared to the lesion area in untreated plants [4]

Cc1cc(-n2ncc3c2CCCC3)ccc1OCc1c(C2CC2)cccc1-n1nnn(C)c1=O [Present compound 8, 1-{3-cyclopropyl-2-[2-methyl-4-(4,5,6,7-tetrahydro-indazol-1-yl)-phenoxymethyl]-phenyl}-4-methyl-1,4-dihydrotetrazole-5-one]
≤ 30%: lesion area in treated plants compared to the lesion area in untreated plants [1] | lesion area in treated plants compared to the lesion area in untreated plants [3] | lesion area compared to the lesion area in untreated plants [6] | lesion area compared to the lesion area in untreated plants [7] | lesion area compared to the lesion area in untreated plants [8] | lesion area compared to the lesion area in untreated plants [9] | lesion area in treated plants compared to the lesion area in untreated plants [4] | lesion area in treated plants compared to the lesion area in untreated plants [5]

Cc1cc(-n2cc3c(n2)CCCC3)ccc1OCc1c(C2CC2)cccc1-n1nnn(C)c1=O [Present compound 9, 1-{3-cyclopropyl-2-[2-methyl-4-(4,5,6,7-tetrahydro-indazol-2-yl)-phenoxymethyl]-phenyl}-4-methyl-1,4-dihydrotetrazole-5-one]
≤ 30%: lesion area in treated plants compared to the lesion area in untreated plants [1] | lesion area compared to the lesion area in untreated plants [2] | lesion area in treated plants compared to the lesion area in untreated plants [3] | lesion area compared to the lesion area in untreated plants [6] | lesion area compared to the lesion area in untreated plants [7] | lesion area compared to the lesion area in untreated plants [8] | lesion area compared to the lesion area in untreated plants [9] | lesion area in treated plants compared to the lesion area in untreated plants [4] | lesion area in treated plants compared to the lesion area in untreated plants [5]

Cc1cc(-n2ncc(C)c2C)ccc1OCc1c(C2CC2)cccc1-n1nnn(C)c1=O [Present compound 10, 1-{3-cyclopropyl-2-[2-methyl-4-(4,5-dimethyl-pyrazol-1-yl)-phenoxymethyl]-phenyl}-4-methyl-1,4-dihydrotetrazole-5-one]
≤ 30%: lesion area in treated plants compared to the lesion area in untreated plants [1] | lesion area compared to the lesion area in untreated plants [2] | lesion area in treated plants compared to the lesion area in untreated plants [3] | lesion area compared to the lesion area in untreated plants [6] | lesion area compared to the lesion area in untreated plants [7] | lesion area compared to the lesion area in untreated plants [8] | lesion area compared to the lesion area in untreated plants [9] | lesion area in treated plants compared to the lesion area in untreated plants [4] | lesion area in treated plants compared to the lesion area in untreated plants [5]

COc1c(C)nn(-c2ccc(OCc3c(C4CC4)cccc3-n3nnn(C)c3=O)c(Cl)c2)c1C [Present compound 11, 1-{3-cyclopropyl-2-[2-chloro-4-(3,5-dimethyl-4-methoxy-pyrazol-1-yl)-phenoxymethyl]-phenyl}-4-methyl-1,4-dihydrotetrazole-5-one]
≤ 30%: lesion area in treated plants compared to the lesion area in untreated plants [1] | lesion area compared to the lesion area in untreated plants [10] | lesion area compared to the lesion area in untreated plants [2] | lesion area in treated plants compared to the lesion area in untreated plants [3] | lesion area in treated plants compared to the lesion area in untreated plants [4] | lesion area in treated plants compared to the lesion area in untreated plants [5]

Cc1cc(-c2cnn(C)c2)ccc1OCc1c(C2CC2)cccc1-n1nnn(C)c1=O [Present compound 16, 1-{3-cyclopropyl-2-[2-methyl-4-(1-methyl-1H-pyrazol-4-yl)-phenoxymethyl]-phenyl}-4-methyl-1,4-dihydrotetrazole-5-one]
≤ 30%: lesion area in treated plants compared to the lesion area in untreated plants [1] | lesion area compared to the lesion area in untreated plants [2] | lesion area in treated plants compared to the lesion area in untreated plants [3] | lesion area compared to the lesion area in untreated plants [6] | lesion area compared to the lesion area in untreated plants [7] | lesion area compared to the lesion area in untreated plants [8] | lesion area compared to the lesion area in untreated plants [9] | lesion area in treated plants compared to the lesion area in untreated plants [4] | lesion area in treated plants compared to the lesion area in untreated plants [5]

Cc1nn(-c2ccc(OCc3c(OC(F)F)cccc3-n3nnn(C)c3=O)c(Cl)c2)c(C)c1C [Present compound 17, 1-{3-difluoromethoxy-2-[2-chloro-4-(3,4,5-trimethyl-pyrazol-1-yl)-phenoxymethyl]-phenyl}-4-methyl-1,4-dihydrotetrazole-5-one]
≤ 30%: lesion area in treated plants compared to the lesion area in untreated plants [1] | lesion area compared to the lesion area in untreated plants [2] | lesion area in treated plants compared to the lesion area in untreated plants [3] | lesion area in treated plants compared to the lesion area in untreated plants [4] | lesion area in treated plants compared to the lesion area in untreated plants [5]

C#Cc1cccc(-n2nnn(C)c2=O)c1COc1ccc(-n2nc(C)c(C)c2C)cc1C [Present compound 20, 1-{3-ethynyl-2-[2-methyl-4-(3,4,5-trimethyl-pyrazol-1-yl)-phenoxymethyl]-phenyl}-4-methyl-1,4-dihydrotetrazole-5-one]
≤ 30%: lesion area compared to the lesion area in untreated plants [2] | lesion area compared to the lesion area in untreated plants [9]

Cc1ccn(-c2cc(C)c(OCc3c(C4CC4)cccc3-n3nnn(C)c3=O)cc2C)n1 [Present compound 21, 1-{3-cyclopropyl-2-[2,5-dimethyl-4-(3-methyl-pyrazol-1-yl)-phenoxymethyl]-phenyl}-4-methyl-1,4-dihydrotetrazole-5-one]
≤ 30%: lesion area compared to the lesion area in untreated plants [10] | lesion area compared to the lesion area in untreated plants [2] | lesion area compared to the lesion area in untreated plants [6] | lesion area compared to the lesion area in untreated plants [7] | lesion area compared to the lesion area in untreated plants [8] | lesion area in treated plants compared to the lesion area in untreated plants [4]

Cc1cc(-n2nc(C)c(C#N)c2C)ccc1OCc1c(C2CC2)cccc1-n1nnn(C)c1=O [Present compound 52, 1-{3-cyclopropyl-2-[2-methyl-4-(4-cyano-3,5-dimethyl-pyrazol-1-yl)-phenoxymethyl]-phenyl}-4-methyl-1,4-dihydrotetrazole-5-one]
≤ 30%: lesion area compared to the lesion area in untreated plants [2] | lesion area compared to the lesion area in untreated plants [6] | lesion area compared to the lesion area in untreated plants [8]
